Experimental findings from PMC9763423 are described below.

The assay has as its target Akt (human (endogenous in CAL27R)). The assay can be described thus: co-IP; endogenous TRAF4 and Akt, CAL27R cells treated with/without IR (2 Gy) for 20 min; lysate in IP buffer, primary antibody and Protein A/G agarose beads, immunoblot.

Results are given in words; binding and its absence hold for the method and conditions named. In cells and extracts the contact can be indirect. A result given as binding can be weak or reduced; the word gives no strength.

B1: TNF receptor-associated factor 4 (TRAF4) (protein, UniProt Q9BUZ4 1-470)
chain: MPGFDYKFLEKPKRRLLCPLCGKPMREPVQVSTCGHRFCDTCLQEFLSEGVFKCPEDQLPLDYAKIYPDPELEVQVLGLPIRCIHSEEGCRWSGPLRHLQGHLNTCSFNVIPCPNRCPMKLSRRDLPAHLQHDCPKRRLKCEFCGCDFSGEAYESHEGMCPQESVYCENKCGARMMRRLLAQHATSECPKRTQPCTYCTKEFVFDTIQSHQYQCPRLPVACPNQCGVGTVAREDLPGHLKDSCNTALVLCPFKDSGCKHRCPKLAMARHVEESVKPHLAMMCALVSRQRQELQELRRELEELSVGSDGVLIWKIGSYGRRLQEAKAKPNLECFSPAFYTHKYGYKLQVSAFLNGNGSGEGTHLSLYIRVLPGAFDNLLEWPFARRVTFSLLDQSDPGLAKPQHVTETFHPDPNWKNFQKPGTWRGSLDESSLGFGYPKFISHQDIRKRNYVRDDAVFIRAAVELPRKILS
In the case of B1, the binding result is “binds”.
